Results are given in words; binding and its absence hold for the method and conditions named. In cells and extracts the contact can be indirect. Here binding means that the protein was enriched with, or labelled near, the bait; the list need not be complete. A no says only that the protein was not detected with the bait.
B1: Pil1 (native-source eisosome) (natural protein, S. cerevisiae (endogenous in yeast), UniProt P53252 1-339, looked up)
chain: MHRTYSLRNSRAPTASQLQNPPPPPSTTKGRFFGKGGLAYSFRRSAAGAFGPELSRKLSQLVKIEKNVLRSMELTANERRDAAKQLSIWGLENDDDVSDITDKLGVLIYEVSELDDQFIDRYDQYRLTLKSIRDIEGSVQPSRDRKDKITDKIAYLKYKDPQSPKIEVLEQELVRAEAESLVAEAQLSNITRSKLRAAFNYQFDSIIEHSEKIALIAGYGKALLELLDDSPVTPGETRPAYDGYEASKQIIIDAESALNEWTLDSAQVKPTLSFKQDYEDFEPEEGEEEEEEDGQGRWSEDEQEDGQIEEPEQEEEGAVEEHEQVGHQQSESLPQQTTA
notes: Pil1, BAR-domain eisosome protein of S. cerevisiae; model built up to residue 274 (C-terminal region from residue 275 removed, no density); Stands in the tubules as dimers in a helical lattice; also called Pil1/Lsp1; PIL1_YEAST; source: endogenous, untagged, S. cerevisiae
B2: Lsp1 (native-source eisosome) (protein, UniProt Q12230 1-341)
chain: MHRTYSLRNQRAPTAAELQAPPPPPSSTKSKFFGKASIASSFRKNAAGNFGPELARKLSQLVKTEKGVLRAMEVVASERREAAKQLSLWGADNDDDVSDVTDKLGVLIYELGELQDQFIDKYDQYRVTLKSIRNIEASVQPSRDRKEKITDEIAHLKYKDPQSTKIPVLEQELVRAEAESLVAEAQLSNITREKLKAAYSYMFDSLRELSEKFALIAGYGKALLELLDDSPVTPGEARPAYDGYEASRQIIMDAESALESWTLDMAAVKPTLSFHQTVDDVYEDEDGEEEEEPEIQNGDIPGQVVEEEEVEWTTEVPVDDEAHEADHHVSQNGHTSGSENI

Sequences of proteins named here, by UniProt entry; tags and fusion partners are left off.
UniProt P47041: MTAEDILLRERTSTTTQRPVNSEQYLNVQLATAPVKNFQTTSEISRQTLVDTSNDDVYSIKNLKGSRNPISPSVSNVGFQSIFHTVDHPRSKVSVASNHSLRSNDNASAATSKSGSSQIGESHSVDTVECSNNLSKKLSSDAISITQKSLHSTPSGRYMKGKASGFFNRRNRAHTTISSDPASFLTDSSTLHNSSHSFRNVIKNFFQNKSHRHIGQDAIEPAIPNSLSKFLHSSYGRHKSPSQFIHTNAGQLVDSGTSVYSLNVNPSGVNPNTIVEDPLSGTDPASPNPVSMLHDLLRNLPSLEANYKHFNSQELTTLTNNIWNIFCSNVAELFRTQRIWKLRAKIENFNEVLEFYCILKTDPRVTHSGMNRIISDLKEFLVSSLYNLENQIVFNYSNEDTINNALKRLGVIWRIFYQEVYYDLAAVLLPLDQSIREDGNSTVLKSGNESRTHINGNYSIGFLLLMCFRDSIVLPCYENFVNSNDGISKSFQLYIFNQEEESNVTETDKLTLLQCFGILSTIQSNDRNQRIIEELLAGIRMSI

Target: Bit61-TAP (S. cerevisiae (endogenous in yeast)) (UniProt P47041)
Test: affinity purification with mass spectrometry; eluate of the Bit61-TAP purification (about 0.5 ug) separated by SDS-PAGE, in-gel digest, LC-MS/MS, MaxQuant

| Binder | binding |
| --- | --- |
| B1 | no binding |
| B2 | no binding |

From article PMC11324527, “Cryo-EM architecture of a near-native stretch-sensitive membrane microdomain” (Nature, 2024)
